Test results reported in patent publication US20250243271A1.
These are yes or no findings as the source states them, for the method shown. Some binding calls cover weakened binding; strength is not graded here.

The chains behind the UniProt entries cited, without tags or fusion partners. Where a name states a change or a piece, a line headed by the entry shows the natural chain unless it says otherwise.
UniProt Q99466: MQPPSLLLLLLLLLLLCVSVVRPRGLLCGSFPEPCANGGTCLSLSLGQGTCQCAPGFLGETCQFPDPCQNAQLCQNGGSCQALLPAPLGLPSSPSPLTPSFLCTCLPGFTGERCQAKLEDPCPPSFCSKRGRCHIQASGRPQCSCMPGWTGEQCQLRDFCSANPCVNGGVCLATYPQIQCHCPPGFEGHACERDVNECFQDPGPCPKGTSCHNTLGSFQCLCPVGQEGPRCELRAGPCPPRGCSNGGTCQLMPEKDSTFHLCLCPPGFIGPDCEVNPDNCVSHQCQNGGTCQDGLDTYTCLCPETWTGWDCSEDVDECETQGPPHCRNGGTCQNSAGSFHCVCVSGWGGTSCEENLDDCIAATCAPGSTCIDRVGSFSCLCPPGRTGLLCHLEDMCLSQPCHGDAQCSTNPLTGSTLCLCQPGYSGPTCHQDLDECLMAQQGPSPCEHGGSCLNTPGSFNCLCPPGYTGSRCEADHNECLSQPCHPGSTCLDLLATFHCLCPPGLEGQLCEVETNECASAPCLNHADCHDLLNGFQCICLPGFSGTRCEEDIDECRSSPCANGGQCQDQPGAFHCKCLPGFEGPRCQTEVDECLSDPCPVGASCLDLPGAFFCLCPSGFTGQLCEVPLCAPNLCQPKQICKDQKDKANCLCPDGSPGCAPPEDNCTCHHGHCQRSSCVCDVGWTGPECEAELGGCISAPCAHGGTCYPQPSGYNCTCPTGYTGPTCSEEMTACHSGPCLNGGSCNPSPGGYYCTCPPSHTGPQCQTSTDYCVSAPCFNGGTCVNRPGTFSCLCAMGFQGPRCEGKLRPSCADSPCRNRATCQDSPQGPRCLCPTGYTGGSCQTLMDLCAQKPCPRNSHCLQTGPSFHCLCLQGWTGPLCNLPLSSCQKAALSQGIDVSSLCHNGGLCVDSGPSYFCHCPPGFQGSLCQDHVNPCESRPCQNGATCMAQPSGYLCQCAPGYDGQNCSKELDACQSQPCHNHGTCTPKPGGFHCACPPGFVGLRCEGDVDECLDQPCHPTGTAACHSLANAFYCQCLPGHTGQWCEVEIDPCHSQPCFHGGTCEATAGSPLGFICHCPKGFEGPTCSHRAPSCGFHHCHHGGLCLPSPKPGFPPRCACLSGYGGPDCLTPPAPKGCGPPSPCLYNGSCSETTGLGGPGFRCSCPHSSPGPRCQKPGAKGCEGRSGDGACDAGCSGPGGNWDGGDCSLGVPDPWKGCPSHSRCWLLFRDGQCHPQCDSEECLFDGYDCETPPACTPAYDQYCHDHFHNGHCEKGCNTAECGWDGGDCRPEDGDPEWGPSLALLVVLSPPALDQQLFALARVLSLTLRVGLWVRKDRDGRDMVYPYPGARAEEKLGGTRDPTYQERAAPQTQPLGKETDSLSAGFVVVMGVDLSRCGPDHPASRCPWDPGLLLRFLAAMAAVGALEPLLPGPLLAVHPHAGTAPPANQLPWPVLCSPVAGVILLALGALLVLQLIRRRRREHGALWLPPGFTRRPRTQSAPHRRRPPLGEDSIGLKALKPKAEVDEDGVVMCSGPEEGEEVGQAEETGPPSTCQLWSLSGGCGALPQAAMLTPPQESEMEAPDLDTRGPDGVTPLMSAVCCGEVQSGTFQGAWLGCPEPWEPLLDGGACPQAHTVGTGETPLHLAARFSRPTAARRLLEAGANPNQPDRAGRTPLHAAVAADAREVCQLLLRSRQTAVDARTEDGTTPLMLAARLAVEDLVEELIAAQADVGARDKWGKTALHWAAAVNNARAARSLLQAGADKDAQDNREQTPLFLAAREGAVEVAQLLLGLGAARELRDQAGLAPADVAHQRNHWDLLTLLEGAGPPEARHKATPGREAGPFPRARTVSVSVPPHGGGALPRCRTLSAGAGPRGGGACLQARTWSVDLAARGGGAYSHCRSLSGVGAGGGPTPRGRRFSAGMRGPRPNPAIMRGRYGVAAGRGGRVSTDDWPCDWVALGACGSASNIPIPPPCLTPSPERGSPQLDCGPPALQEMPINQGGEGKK

Columns and labels:
[1] = biological target: Recombinant human Notch4 (human) (UniProt Q99466); assay: competition ELISA on Notch4 with or without MHN4-2, absorbance at 450 nm
[2] = biological target: Recombinant human Notch4 (human) (UniProt Q99466); assay: ELISA, absorbance at 450 nm
[3] = biological target: Recombinant human Notch4 (human) (UniProt Q99466); assay: ELISA, absorbance at 450 nm, single condition, antibody concentration not given
[4] = biological target: Recombinant human Notch4 (human) (UniProt Q99466); assay: competition (epitope binning) ELISA on Notch4 antigen with or without the mouse antibody MHN4-2, absorbance at 450 nm

Measured: binding

B1: H07-Lib3-Pl1 (antibody, V domains shown)
VH: EVQLVESGGGLVQPGGSLRLSCAASGLPFSSYAMSWVRQAPGKGLELVASIGTAGDAYYPDSVKGRFTISRDNAKNSLYLQMNSLRAEDTAVYYCARVGPFWQGFAFDIWGQGTMVTVSS
VL: DIVMTQSPLSLPVTPGEPASISCRSSQSLLHSSGHNYLHWYLQKPGQSPQLLIYMTYNRASGVPDRFSGSGSGTDFTLKISRVEAEDVGVYYCLQTTHWPHTFGGGTKVEIK
binds: all assays above
